Laboratory results: the supplement of paper PMC6078165

Tested on: HCC1143
Test: relative JC-1 red fluorescence (viability) vs pre-drug, coculture with fibroblast (fraction); higher = more viable cancer cells
Details: 1 µM
Procedure: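 JC-1 labelled TNBC cells cocultured 1:1 (1,500 cells each) with CellTrace Violet stained primary or stromal fibroblasts in 384-well plates in FluoroBrite medium, treated with one of 42 anticancer drugs at 0.1, 1, 10 or 100 uM. JC-1 red fluorescence (mitochondrial integrity in cancer cells only) was read by plate reader every 8 h for 72 h. Values are normalised to each well's pre-drug value. The stock of one drug was tenfold lower, so its dose labels may be too high.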

CC(=O)c1c(C)c2cnc(Nc3ccc(N4CCNCC4)cn3)nc2n(C2CCCC2)c1=O [Palbociclib]
relative JC-1 red fluorescence
Details | 8 h | 16 h | 24 h | 32 h | 40 h | 48 h | 56 h | 64 h | 72 h
coculture fibroblast: C12385 | 0.8516 | 0.7577 | 0.7201 | 0.672 | 0.412 | 0.386 | 0.361 | 0.335 | 0.323
coculture fibroblast: H6013 | 0.788 | 0.732 | 0.709 | 0.713 | 0.656 | 0.645 | 0.614 | 0.599 | 0.586
coculture fibroblast: H6019 | 0.8524 | 0.773 | 0.743 | 0.681 | 0.65 | 0.631 | 0.589 | 0.544 | 0.52
coculture fibroblast: H6076 | 0.8193 | 0.793 | 0.771 | 0.746 | 0.71 | 0.704 | 0.689 | 0.6744 | 0.689
coculture fibroblast: H6231 | 0.83 | 0.914 | 0.804 | 0.61 | 0.687 | 0.63414 | 0.591 | 0.5532 | 0.5147
coculture fibroblast: HADF | 0.79 | 0.724 | 0.716 | 0.733 | 0.64 | 0.623 | 0.603 | 0.571 | 0.592
coculture fibroblast: HCFa | 0.822 | 0.749 | 0.708 | 0.696 | 0.621 | 0.593 | 0.55 | 0.519 | 0.497
coculture fibroblast: HCPF | 0.819 | 0.842 | 0.803 | 0.663 | 0.711 | 0.673 | 0.623 | 0.592 | 0.571
coculture fibroblast: HHSteC | 0.885 | 0.8168 | 0.80031 | 0.778 | 0.7139 | 0.702 | 0.6576 | 0.631 | 0.586
coculture fibroblast: HMF | 0.839 | 0.8675 | 0.823 | 0.728 | 0.761 | 0.744 | 0.718 | 0.702 | 0.686
coculture fibroblast: HPFa | 0.9287 | 0.849 | 0.814 | 0.732 | 0.675 | 0.646 | 0.589 | 0.547 | 0.507
coculture fibroblast: HUF | 0.901 | 0.802 | 0.752 | 0.682 | 0.64 | 0.609 | 0.562 | 0.53 | 0.508
coculture fibroblast: Hs5 | 0.8703 | 0.928 | 0.891 | 0.829 | 0.796 | 0.763 | 0.734 | 0.711 | 0.684
coculture fibroblast: Hs27A | 0.756 | 0.694 | 0.661 | 0.688 | 0.566 | 0.553 | 0.509 | 0.481 | 0.489
coculture fibroblast: Hs343T | 0.819 | 0.8417 | 0.7897 | 0.6852 | 0.679 | 0.643 | 0.59 | 0.561 | 0.5272
coculture fibroblast: WS1 | 0.8281 | 0.7477 | 0.732 | 0.672 | 0.6376 | 0.6046 | 0.5679 | 0.537 | 0.52

The reference is the same well before dosing, and untreated signal decays as well.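 Fibroblast labels name human fibroblasts: mostly primary ones from tissues such as uterus (C12385, HUF), lung (H6013), bone (Hs27A), adrenal (HADF) and skin (WS1), plus mammary HMF and breast cancer-associated Hs343T. The cancer cells are basal-like or mesenchymal-like triple-negative breast cancer lines. The paper calls a changed response a hit when it shifts by more than 3x the replicate standard deviation. The tissue of the other fibroblasts is not given here.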
